For five molecules, binding results are on record in patent WO2021084104A1 (dated 2021).

The chains behind the UniProt entries cited, without tags or fusion partners. Residues count along the entry.
UniProt P13500, residues 24-99: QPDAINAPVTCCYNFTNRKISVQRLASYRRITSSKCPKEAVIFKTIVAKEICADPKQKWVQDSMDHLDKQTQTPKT

These are yes or no findings as the source states them, for the method shown. Some entries that bind do so weakly or less than the wild type.

The target of test [1] is recombinant MCP-1 protein (UniProt P13500). The test is described as follows: ELISA on recombinant protein. (In general: ELISA stands for enzyme-linked immunosorbent assay.)
Test [2] shares this target. The experiment in a line: ELISA on recombinant MCP-1, HRP anti-human detection (Fig. 12).
For test [3], the target named is T1, recombinant CD72 (UniProt P21854).
T1 sequence (looked up): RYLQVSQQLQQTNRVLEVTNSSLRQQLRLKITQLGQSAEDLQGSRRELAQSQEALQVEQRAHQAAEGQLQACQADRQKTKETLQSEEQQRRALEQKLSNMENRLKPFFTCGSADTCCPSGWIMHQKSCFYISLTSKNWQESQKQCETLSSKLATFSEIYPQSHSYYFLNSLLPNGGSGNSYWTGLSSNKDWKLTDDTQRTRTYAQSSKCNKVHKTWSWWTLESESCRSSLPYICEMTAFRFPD
The experiment in a line: ELISA on recombinant CD72 (Fig. 13A).

Test [4] concerns the target T1, recombinant CD72. The test is described as follows: ELISA on recombinant CD72 (Fig. 13B).

B1: tetra-VH-IgG #22 (VH-CH1=MCP1#6, VH-CL=41BB#4) (bispecific antibody, V domains shown, not shown: a dimerising Fc or GST)
V domain 1: EVQLLESGGGLVQPGGSLRLSCAASGFTFGSYWMHWVRQAPGKGLEWVASINRGSSQIYYADSVKGRFTISRDNSKNTLYLQMNSLRAEDTAVYYCARLMDGGSYYFDYWGQGTLVTVSS
V domain 2: EVQLLESGGGLVQPGGSLRLSCAASGFTFGDYAMSWFRQAPGKGLEWVAVLSYDGSNTDYADSVKGRFTISRDNSKNTLYLQMNSLRAEDTAVYYCAKGPLILAAGNYWGQGTLVTVSS
B1: the binding result in test [1] and in test [2] was “binds” in each case.

B2: tetra-VH-IgG #24 (VH-CH1=MCP1#6, VH-CL=OX40#2) (bispecific antibody, V domains shown, not shown: a dimerising Fc or GST)
V domain 1: EVQLLESGGGLVQPGGSLRLSCAASGFTFGSYWMHWVRQAPGKGLEWVASINRGSSQIYYADSVKGRFTISRDNSKNTLYLQMNSLRAEDTAVYYCARLMDGGSYYFDYWGQGTLVTVSS
V domain 2: EVQLLESGGGLVQPGGSLRLSCAASGFTFSSYAMSWVRQAPGKGLEWVSGVSGGGGSTYYADSVRGRFTISRDNSKNTLYLQMNSLRAEDTAVYYCARGWDDINVWGQGTLVTVSS
B2: the binding entry in test [1] and in test [2] was “binds” throughout.

B3: tetra-VH-IgG #23 (VH-CH1=MCP1#6, VH-CL=CD40#5) (bispecific antibody, V domains shown, not shown: a dimerising Fc or GST)
V domain 1: EVQLLESGGGLVQPGGSLRLSCAASGFTFGSYWMHWVRQAPGKGLEWVASINRGSSQIYYADSVKGRFTISRDNSKNTLYLQMNSLRAEDTAVYYCARLMDGGSYYFDYWGQGTLVTVSS
V domain 2: EVQLLESGGGLVQPGGSLRLSCAASGFTFSSYTMDWVRQAPGKGLEWVSSISESGDTTDYADSVKGRFTISRDNSKNTLYLQMNSLRAEDTAVYYCARCSGGSCYSVNWGQGTLVTVSS
As for B3, the binding entry in test [1] and in test [2] was “binds” throughout.

B4: VH-CD72-002-F04 (protein, not shown: small tags and cut ends)
VH: EVQLLESGGGLVQPGGSLRLSCAASGFTFRSYAMTWVRQAPGKGLEWVANIKQDGSREYYVDSVKARFTISRDNSKNTLYLQMNSLRAEDTAVYYCAKGGNFAFDYWGQGTLVTVSS
As for B4, the binding entry in the test with recombinant CD72 [3] is recorded as “binds”.

B5: VH-CD72-001-C07 (protein, not shown: small tags and cut ends)
VH: EVQLLESGGGLVQPGGSLRLSCAASGFTFSSYTMDWVRQAPGKGLEWVAVISSDGTNEYYADSVKGRSTISRDNSKNTLYLQMNSLRAEDTAVYYCARDRGYYFDYWGQGTLVTVSS
Take B5: in the test with recombinant CD72 [4], the binding result was “binds”.
